Results are given in words; binding and its absence hold for the method and conditions named. Binding seen in cells or lysates may run through a third protein. These calls come from enrichment with a bait or labelling near it, and not all partners need be listed. Tags and fused reporters may be left off the sequences shown.
What was measured:
Assay in all cases: proximity labelling
PMPCA-BirA*-FLAG (human) = target: T1, PMPCA-BirA*-FLAG (human) (UniProt Q10713)
T1 sequence: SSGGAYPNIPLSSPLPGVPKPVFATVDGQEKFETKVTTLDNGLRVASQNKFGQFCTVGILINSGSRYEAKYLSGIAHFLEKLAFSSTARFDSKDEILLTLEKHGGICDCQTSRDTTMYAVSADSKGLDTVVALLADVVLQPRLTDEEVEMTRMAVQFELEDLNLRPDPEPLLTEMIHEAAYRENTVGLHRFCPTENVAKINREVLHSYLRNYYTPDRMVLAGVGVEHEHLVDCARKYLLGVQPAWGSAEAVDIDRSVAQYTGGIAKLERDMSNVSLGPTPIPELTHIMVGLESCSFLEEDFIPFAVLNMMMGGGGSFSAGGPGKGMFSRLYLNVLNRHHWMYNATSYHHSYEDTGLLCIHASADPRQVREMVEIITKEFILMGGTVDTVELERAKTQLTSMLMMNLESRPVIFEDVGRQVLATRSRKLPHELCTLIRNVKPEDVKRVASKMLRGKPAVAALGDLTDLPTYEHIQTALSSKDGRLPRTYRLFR

MTIF2-BirA*-FLAG (human) = target: T2, MTIF2-BirA*-FLAG (human) (UniProt P46199)
T2 sequence: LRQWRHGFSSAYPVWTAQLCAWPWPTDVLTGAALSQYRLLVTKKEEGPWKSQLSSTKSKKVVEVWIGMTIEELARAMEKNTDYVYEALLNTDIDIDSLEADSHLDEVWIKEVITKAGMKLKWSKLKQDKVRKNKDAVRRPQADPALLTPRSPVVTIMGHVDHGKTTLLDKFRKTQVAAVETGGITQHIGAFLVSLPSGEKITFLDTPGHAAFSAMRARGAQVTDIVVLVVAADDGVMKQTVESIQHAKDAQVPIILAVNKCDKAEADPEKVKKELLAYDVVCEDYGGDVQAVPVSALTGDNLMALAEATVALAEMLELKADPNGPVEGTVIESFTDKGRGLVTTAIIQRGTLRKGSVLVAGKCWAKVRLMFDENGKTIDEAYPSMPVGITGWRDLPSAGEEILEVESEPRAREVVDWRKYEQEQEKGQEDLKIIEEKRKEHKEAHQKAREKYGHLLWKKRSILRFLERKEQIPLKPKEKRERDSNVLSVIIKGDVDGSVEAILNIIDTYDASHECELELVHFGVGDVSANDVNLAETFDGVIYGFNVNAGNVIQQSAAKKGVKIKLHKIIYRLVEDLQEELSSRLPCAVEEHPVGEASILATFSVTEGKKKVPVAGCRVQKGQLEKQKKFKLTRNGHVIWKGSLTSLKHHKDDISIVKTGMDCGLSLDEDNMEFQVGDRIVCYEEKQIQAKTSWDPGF

ACAD9-BirA*-FLAG (human) = target: T3, ACAD9-BirA*-FLAG (human) (UniProt Q9H845)
T3 sequence: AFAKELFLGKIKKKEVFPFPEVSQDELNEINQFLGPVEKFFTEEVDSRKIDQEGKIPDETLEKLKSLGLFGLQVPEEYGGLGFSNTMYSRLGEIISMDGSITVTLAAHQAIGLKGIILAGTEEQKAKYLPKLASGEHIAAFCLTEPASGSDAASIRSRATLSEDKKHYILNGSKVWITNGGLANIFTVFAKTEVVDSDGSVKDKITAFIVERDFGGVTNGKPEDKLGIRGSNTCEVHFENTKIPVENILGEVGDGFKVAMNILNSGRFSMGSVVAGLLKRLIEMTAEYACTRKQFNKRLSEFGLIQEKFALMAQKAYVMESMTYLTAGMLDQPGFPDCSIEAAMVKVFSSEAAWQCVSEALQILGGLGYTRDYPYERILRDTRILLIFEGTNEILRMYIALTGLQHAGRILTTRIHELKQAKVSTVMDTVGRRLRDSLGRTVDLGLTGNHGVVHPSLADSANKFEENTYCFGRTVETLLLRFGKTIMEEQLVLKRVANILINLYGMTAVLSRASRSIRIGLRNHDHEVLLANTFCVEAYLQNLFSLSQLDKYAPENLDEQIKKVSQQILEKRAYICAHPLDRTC

[1] = target: T4, MTRF1L-BirA*-FLAG (human) (UniProt Q9UGC7)
T4 sequence: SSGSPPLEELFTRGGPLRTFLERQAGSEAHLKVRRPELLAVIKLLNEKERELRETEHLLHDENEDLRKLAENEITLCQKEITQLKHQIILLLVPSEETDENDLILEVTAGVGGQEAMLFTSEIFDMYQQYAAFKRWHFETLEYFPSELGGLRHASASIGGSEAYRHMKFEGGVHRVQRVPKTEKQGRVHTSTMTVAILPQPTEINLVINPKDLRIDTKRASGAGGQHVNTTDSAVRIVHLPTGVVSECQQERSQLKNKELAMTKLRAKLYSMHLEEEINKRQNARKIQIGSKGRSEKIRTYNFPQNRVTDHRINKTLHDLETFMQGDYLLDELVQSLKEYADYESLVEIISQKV

[2] = target: T5, ACAD9-BirA*-FLAG (human), Q9H845; settings: remark: other sources report otherwise
T5 chain: T3 sequence

B1: PMPCB (protein, UniProt O75439 44-489)
chain: STQAATQVVLNVPETRVTCLESGLRVASEDSGLSTCTVGLWIDAGSRYENEKNNGTAHFLEHMAFKGTKKRSQLDLELEIENMGAHLNAYTSREQTVYYAKAFSKDLPRAVEILADIIQNSTLGEAEIERERGVILREMQEVETNLQEVVFDYLHATAYQNTALGRTILGPTENIKSISRKDLVDYITTHYKGPRIVLAAAGGVSHDELLDLAKFHFGDSLCTHKGEIPALPPCKFTGSEIRVRDDKMPLAHLAIAVEAVGWAHPDTICLMVANTLIGNWDRSFGGGMNLSSKLAQLTCHGNLCHSFQSFNTSYTDTGLWGLYMVCESSTVADMLHVVQKEWMRLCTSVTESEVARARNLLKTNMLLQLDGSTPICEDIGRQMLCYNRRIPIPELEARIDAVNAETIREVCTKYIYNRSPAIAAVGPIKQLPDFKQIRSNMCWLRD
- binding (PMPCA-BirA*-FLAG (human)): binds

B2: MTG2 (protein, UniProt Q9H4K7 1-406)
chain: MAPARCFSARLRTVFQGVGHWALSTWAGLKPSRLLPQRASPRLLSVGRADLAKHQELPGKKLLSEKKLKRYFVDYRRVLVCGGNGGAGASCFHSEPRKEFGGPDGGDGGNGGHVILRVDQQVKSLSSVLSRYQGFSGEDGGSKNCFGRSGAVLYIRVPVGTLVKEGGRVVADLSCVGDEYIAALGGAGGKGNRFFLANNNRAPVTCTPGQPGQQRVLHLELKTVAHAGMVGFPNAGKSSLLRAISNARPAVASYPFTTLKPHVGIVHYEGHLQIAVADIPGIIRGAHQNRGLGSAFLRHIERCRFLLFVVDLSQPEPWTQVDDLKYELEMYEKGLSARPHAIVANKIDLPEAQANLSQLRDHLGQEVIVLSALTGENLEQLLLHLKVLYDAYAEAELGQGRQPLRW
- binding (MTIF2-BirA*-FLAG (human)): binds

B3: ECSIT (protein, UniProt Q9BQ95 49-431)
chain: SSEQSLVPSPPEPRQRPTKALVPFEDLFGQAPGGERDKASFLQTVQKFAEHSVRKRGHIDFIYLALRKMREYGVERDLAVYNQLLNIFPKEVFRPRNIIQRIFVHYPRQQECGIAVLEQMENHGVMPNKETEFLLIQIFGRKSYPMLKLVRLKLWFPRFMNVNPFPVPRDLPQDPVELAMFGLRHMEPDLSARVTIYQVPLPKDSTGAADPPQPHIVGIQSPDQQAALARHNPARPVFVEGPFSLWLRNKCVYYHILRADLLPPEEREVEETPEEWNLYYPMQLDLEYVRSGWDNYEFDINEVEEGPVFAMCMAGAHDQATMAKWIQGLQETNPTLAQIPVVFRLAGSTRELQTSSAGLEEPPLPEDHQEEDDNLQRQQQGQS
- binding (ACAD9-BirA*-FLAG (human)): binds
- binding [1]: binds

B4: NDUFAF1, Q9Y375 25-327 (protein)
chain: YPFLGIRFAEYSSSLQKPVASPGKASSQRKTEGDLQGDHQKEVALDITSSEEKPDVSFDKAIRDEAIYHFRLLKDEIVDHWRGPEGHPLHEVLLEQAKVVWQFRGKEDLDKWTVTSDKTIGGRSEVFLKMGKNNQSALLYGTLSSEAPQDGESTRSGYCAMISRIPRGAFERKMSYDWSQFNTLYLRVRGDGRPWMVNIKEDTDFFQRTNQMYSYFMFTRGGPYWQEVKIPFSKFFFSNRGRIRDVQHELPLDKISSIGFTLADKVDGPFFLEIDFIGVFTDPAHTEEFAYENSPELNPRLFK
- binding [2]: binds
